Measured values taken from PMC9887753.

Biological target: T1, FLAG-tagged mouse perilipin 5 (Plin5), transgene of MHC-Plin5 mice (mouse) (UniProt Q8BVZ1)
T1 sequence: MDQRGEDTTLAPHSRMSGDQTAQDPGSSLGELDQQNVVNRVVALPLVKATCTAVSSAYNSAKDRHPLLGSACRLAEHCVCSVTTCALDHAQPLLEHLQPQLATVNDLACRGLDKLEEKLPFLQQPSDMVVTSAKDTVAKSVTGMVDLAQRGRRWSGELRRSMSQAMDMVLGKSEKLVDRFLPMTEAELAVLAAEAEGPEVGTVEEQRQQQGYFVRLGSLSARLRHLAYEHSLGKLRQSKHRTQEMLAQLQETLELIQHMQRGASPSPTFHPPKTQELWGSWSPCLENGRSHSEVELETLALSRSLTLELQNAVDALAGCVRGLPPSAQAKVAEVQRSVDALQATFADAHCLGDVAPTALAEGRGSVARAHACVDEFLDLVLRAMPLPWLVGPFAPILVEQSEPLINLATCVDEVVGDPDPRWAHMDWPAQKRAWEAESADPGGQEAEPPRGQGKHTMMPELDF
Assay: affinity purification with mass spectrometry; FLAG immunoprecipitation (Pierce Anti-FLAG Magnetic Agarose, overnight 4°C) from lysates of primary MHC-Plin5 and WT cardiomyocytes (1% Triton X-100, 150 mM NaCl, pH 7.4); TMT10plex nano-LC-MS/MS

## sarcoplasmic/endoplasmic reticulum Ca2+ ATPase 2 (SERCA2) (from UniProt O55143-2)
  binding: binds

These are yes or no findings as the source states them, for the method shown. Binding seen in cells or lysates may run through a third protein. A yes stands for co-enrichment or nearness to the bait. Other partners may have been found. Sequences can lack the tags named with a protein.
